Source: PMC7948738
These are yes or no findings as the source states them, for the method shown. In cells and extracts the contact can be indirect. These calls come from enrichment with a bait or labelling near it, and not all partners need be listed.

Amino acid sequences for entries named in this document (tags omitted). Residues count along the entry.
UniProt P26450: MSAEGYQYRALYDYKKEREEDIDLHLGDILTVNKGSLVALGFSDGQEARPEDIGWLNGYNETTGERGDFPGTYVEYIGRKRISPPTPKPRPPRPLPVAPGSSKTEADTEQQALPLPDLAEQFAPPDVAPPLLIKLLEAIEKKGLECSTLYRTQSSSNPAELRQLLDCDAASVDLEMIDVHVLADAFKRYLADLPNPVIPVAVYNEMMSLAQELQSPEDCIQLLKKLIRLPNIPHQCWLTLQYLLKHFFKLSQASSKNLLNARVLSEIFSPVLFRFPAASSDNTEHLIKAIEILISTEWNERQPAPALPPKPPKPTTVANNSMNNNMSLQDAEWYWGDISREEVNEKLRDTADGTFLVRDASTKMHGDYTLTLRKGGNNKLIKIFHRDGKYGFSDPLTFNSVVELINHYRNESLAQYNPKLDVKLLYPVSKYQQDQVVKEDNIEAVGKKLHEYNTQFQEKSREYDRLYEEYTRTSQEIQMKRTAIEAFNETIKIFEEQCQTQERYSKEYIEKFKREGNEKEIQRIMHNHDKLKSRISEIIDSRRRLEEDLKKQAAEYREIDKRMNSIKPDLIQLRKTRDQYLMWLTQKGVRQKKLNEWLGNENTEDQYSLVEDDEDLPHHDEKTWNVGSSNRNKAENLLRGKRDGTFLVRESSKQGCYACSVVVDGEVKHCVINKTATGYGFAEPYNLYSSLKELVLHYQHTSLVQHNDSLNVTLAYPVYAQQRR
UniProt P62259: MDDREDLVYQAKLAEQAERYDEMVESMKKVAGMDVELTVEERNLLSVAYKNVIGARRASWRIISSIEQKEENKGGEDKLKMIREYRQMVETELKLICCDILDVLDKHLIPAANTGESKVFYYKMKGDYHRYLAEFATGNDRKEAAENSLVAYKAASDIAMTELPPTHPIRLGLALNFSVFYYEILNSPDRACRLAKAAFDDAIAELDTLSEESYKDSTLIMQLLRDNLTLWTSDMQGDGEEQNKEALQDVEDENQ
UniProt P63101: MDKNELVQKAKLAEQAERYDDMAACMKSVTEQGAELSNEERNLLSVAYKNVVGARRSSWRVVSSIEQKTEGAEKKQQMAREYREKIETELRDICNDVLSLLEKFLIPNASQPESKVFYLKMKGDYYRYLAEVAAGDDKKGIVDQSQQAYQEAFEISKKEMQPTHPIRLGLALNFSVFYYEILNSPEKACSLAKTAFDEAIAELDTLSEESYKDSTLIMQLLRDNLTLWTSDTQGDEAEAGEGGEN
UniProt P20029, residues 20-655: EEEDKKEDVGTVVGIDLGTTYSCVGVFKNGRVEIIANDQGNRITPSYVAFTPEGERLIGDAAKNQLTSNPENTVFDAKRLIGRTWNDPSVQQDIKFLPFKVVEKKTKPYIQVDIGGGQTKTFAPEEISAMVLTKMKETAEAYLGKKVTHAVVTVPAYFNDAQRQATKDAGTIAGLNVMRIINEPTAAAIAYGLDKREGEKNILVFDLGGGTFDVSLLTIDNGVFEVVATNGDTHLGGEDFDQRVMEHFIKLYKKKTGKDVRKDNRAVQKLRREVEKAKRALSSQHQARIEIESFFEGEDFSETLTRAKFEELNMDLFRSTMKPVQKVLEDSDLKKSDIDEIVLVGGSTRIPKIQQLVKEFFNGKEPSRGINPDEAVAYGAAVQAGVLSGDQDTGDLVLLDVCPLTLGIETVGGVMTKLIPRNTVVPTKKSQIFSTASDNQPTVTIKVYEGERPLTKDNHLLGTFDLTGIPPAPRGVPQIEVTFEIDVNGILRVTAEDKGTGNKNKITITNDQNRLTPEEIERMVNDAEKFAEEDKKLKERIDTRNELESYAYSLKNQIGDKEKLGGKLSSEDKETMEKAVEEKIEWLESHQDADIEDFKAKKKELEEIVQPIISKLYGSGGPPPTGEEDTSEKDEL
UniProt Q8R550: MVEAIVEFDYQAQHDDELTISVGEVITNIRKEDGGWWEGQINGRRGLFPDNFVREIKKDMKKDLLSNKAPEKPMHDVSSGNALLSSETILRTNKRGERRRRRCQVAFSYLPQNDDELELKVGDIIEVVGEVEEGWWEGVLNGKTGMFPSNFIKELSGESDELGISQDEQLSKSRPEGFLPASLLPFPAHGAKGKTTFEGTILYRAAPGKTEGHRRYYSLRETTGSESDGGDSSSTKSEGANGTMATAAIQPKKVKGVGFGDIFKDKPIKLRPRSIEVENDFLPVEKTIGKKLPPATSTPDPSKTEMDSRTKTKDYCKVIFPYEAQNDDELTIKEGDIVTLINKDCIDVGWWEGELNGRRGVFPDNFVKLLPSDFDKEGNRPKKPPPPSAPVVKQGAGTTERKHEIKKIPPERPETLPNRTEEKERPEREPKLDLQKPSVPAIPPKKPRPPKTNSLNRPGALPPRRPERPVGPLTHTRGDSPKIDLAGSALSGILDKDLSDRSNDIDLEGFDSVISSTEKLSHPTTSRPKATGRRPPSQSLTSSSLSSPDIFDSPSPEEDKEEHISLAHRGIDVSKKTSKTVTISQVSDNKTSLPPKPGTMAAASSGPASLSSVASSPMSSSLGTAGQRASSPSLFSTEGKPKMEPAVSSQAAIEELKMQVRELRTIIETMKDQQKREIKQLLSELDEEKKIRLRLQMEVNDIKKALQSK
UniProt P26618, residues 25-1089: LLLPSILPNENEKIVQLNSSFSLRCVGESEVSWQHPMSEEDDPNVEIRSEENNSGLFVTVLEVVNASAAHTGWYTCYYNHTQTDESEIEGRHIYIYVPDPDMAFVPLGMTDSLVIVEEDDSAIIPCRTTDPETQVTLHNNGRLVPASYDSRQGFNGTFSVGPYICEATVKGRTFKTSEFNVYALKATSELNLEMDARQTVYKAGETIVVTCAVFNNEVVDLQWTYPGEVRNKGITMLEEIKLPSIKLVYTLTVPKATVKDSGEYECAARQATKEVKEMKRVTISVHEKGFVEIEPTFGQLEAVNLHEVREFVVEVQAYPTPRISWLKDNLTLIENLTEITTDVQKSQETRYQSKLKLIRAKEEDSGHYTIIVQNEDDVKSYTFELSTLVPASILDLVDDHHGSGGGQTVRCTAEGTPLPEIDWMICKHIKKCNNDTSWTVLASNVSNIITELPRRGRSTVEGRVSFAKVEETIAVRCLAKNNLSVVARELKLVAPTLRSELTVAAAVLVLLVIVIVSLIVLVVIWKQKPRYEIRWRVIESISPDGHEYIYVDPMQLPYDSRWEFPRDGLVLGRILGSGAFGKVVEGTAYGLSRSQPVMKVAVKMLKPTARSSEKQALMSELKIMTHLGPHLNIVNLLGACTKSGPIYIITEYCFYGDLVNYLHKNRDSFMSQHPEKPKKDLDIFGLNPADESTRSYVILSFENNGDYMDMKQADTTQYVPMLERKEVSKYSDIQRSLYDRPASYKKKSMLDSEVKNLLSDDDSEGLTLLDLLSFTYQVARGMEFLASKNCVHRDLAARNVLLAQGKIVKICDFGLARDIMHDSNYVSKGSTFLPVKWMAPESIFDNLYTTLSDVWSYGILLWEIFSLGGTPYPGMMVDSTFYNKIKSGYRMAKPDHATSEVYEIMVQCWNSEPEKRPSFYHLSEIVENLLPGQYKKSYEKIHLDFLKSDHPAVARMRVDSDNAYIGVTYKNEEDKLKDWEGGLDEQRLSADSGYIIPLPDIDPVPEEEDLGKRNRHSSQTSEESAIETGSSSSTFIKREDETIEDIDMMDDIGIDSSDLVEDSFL
UniProt O08908: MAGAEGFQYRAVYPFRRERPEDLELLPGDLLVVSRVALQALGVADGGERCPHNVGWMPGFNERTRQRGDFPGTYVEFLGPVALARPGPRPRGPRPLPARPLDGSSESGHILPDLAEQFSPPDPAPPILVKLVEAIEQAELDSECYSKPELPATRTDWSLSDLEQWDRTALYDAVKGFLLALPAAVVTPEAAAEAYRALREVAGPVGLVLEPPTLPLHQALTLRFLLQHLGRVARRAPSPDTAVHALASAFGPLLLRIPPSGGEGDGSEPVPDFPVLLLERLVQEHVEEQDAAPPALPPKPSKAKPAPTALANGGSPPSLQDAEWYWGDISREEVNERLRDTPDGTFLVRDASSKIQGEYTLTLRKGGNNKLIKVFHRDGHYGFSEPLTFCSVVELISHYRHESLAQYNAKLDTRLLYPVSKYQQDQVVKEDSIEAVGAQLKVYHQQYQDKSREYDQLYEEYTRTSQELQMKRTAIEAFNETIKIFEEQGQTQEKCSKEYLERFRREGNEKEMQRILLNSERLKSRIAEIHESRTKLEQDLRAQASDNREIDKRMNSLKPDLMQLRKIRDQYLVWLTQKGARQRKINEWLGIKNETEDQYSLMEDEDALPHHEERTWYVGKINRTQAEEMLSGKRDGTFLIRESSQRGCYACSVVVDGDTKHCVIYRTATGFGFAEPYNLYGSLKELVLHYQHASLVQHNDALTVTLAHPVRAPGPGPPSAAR

B1: Isoform 1 of MKL/myocardin-like protein 1 (protein, UniProt Q8K4J6 1-964)
chain: MTLLEPEMLMMAVQSVLQLKLQQRRTREELVSQGIMPPLKSPAAFHEQRRSLERARTEDYLKRKIRSRPERAELVRMHILEETSAEPSLQAKQLKLKRARLADDLNEKIAQRPGPMELVEKNILPVESSLKEAIIVGQVNYPKVADSSSFDEDSSDALSPEQPASHESQGSVPSPLESRVSDPLPSATSISPTQVLSQLPMAPDPGETLFLAEQPPLPPAPLLPPSLANGSIVPTAKPAPTLIKQSQPKSASEKSQRSKKAKELKPKVKKLKYHQYIPPDQKQDKGAPAMDSSYAKILQQQQLFLQLQILNQQQQQQQQQHYNYQAILPAPPKPSAETPGSSAPTPSRSLSTSSSPSSGTPGPSGLARQSSTALAAKPGALPANLDDMKVAELKQELKLRSLPVSGTKTELIERLRAYQDQVSPAPGAPKAPATTSVLSKAGEVVVAFPAALLSTGSALVTAGLAPAEMVVATVTSNGMVKFGSTGSTPPVSPTPSERSLLSTGDENSTPGDAFGEMVTSPLTQLTLQASPLQIVKEEGARAASCCLSPGARAELEGLDKDQMLQEKDKQIEELTRMLQQKQQLVELLRLQLEQQKRAQQPAPASSPVKRESGFSSCQLSCQPQGSAHAFGSGLVVPTTNHGDTQAPAPESPPVVVKQEAGPPEPDLAPSSQLLLGSQGTSFLKRVSPPTLVTDSTGTHLILTVTNKSADGPGLPAGSPQQPLSQPGSPAPGPPAQMDLEHPPQPPFATPTSLLKKEPPGYEETVTQQPKQQENGSSSQHMDDLFDILIQSGEISADFKEPPSLPGKEKSPPAAAAYGPPLTPQPSPLSELPQAAPPPGSPTLPGRLEDFLESSTGLPLLTSGHEGPEPLSLIDDLHSQMLSSSAILDHPPSPMDTSELHFAPEPSSGMGLDLAVGHLDSMDWLELSSGGPVLSLAPLSTAAPSLFSMDFLDGHDLQLHWDSCL
B2: Isoform 1 of zinc finger CCCH domain–containing protein 14 (protein, UniProt Q8BJ05 1-735)
chain: MEIGTEISRKIRSAIKGKLQELGAYVDEELPDYIMVMVANKKSQDQMTEDLSLFLGNNTIRFTVWLHGVLDKLRSVTTEPSSLKSPDASIFDSHVPSNKSSFSRGDERRHEAAVPPLAVSSSRPEKRDSRVSTSSQEQKSTNVRHSYDDGASTRLMSTVKPLREPAPSEDVIDIKPEPDDLIDEDLNFVQENPLSQKKPTVTLTYGSSRPSIEIYRPPASRNADTGTHLNRLQLHPQQSSAHAAKQLDVQSSQVSEAGRLCEPPVLSSVEDTYSPFFRNNLDKMSIEDENFRKRKLPVVSSVVKVKRFSHDGEEEEEDEDYGTRIGSLSSSVSVPAKPERRPSLPPSKQANKNLILKAISEAQESVTKTTNYSAVPQKQTLPVAPRTRTSQEELLAEMVQGQNRAPRISPPVKEEEAKGDNTGKSQGTQQRQLLSRLQIDPVMVETMEMSQDYYDMESMVHADTRSFILKKPKLSEEIVVTPNQDSGMKTADALRVLSGHLMQTRDLVQPDKPASPKFIVTLDGVPSPPGYMSDQEEEMCFEGMKPVNQTSASNKGLRGLLHPQQLHLLSRQLEDPDGSFSNAEMTDLSVAQKPEKLLERCKYWPACKNGDECVYHHPISPCKAFPNCKFAEKCLFVHPNCKYDTKCTKADCPFTHMSRRASILTPKPVSSPAPSSNGQLCRYFPACKKMECPFYHPKHCRFNTQCTRPDCTFYHPTITVPPRHALKWIRPQSSE
B3: Isoform Cas-A of breast cancer anti-estrogen resistance protein 1 (protein, UniProt Q61140-2 1-874)
chain: MKYLNVLAKALYDNVAESPDELSFRKGDIMTVLERDTQGLDGWWLCSLHGRQGIVPGNRLKILVGMYDKKPVGPGPGPPATPPQPQPSLPQGVHAPVPPASQYSPMLPTAYQPQSDNVYLVPTPSKTQQGLYQAPGPNPQFQSPPAKQTSTFSKQTPHHSFPSPATDLYQVPPGPGSPAQDIYQVPPSAGIGHDIYQVPPSLDTRGWEGTKPPAKVVVPTRVGQGYVYEAAQTEQDEYDTPRHLLAPGPQDIYDVPPVRGLLPNQYGQEVYDTPPMAVKGPNGRDPLLDVYDVPPSVEKGLLSSSHHSVYDVPPSVSKDVPDGPLLREETYDVPPAFAKPKPFDPTRHPLILAAPPPDSPAAEDVYDVPPPAPDLYDVPPGLRRPGPGTLYDVPRERVLPPEVADGSVVDDGVYAVPPPAEREAPTDGKRLSASSTGSTRSSQSASSLEVVVPGREPLELEVAVESLARLQQGVSTTVAHLLDLVGSASGPGGWRGTSEPQEPPAQDLKAAVAAVHGAVHELLEFARGAVSNATHTSDRTLHAKLSRQLQKMEDVYQTLVVHGQVLDSGRGSPGFTPEDLDRLVACSRAVPEDAKQLASFLHGNASLLFRRTKAPGPGPEGSSSLHPNPTDKASSIQSRPLPSPPKFTSQDSPDGQYENSEGGWMEDYDYVHLQGKEEFEKTQKELLERGNIMRQGKGQLELQQLKQFERLEQEVSRPIDHDLANWTPAQPLVPGRTGGLGPSDRQLLLFYLEQCEANLTTLTDAVDAFFTAVATNQPPKIFVAHSKFVILSAHKLVFIGDTLSRQAKAADVRSQVTHYSNLLCDLLRGIVATTKAAALQYPSPSAAQDMVDRVKELGHSTQQFRRVLGQLAAA
B4: GRB2-associated binding protein 1 (protein, UniProt Q9QYY0 1-695)
chain: MSGGEVVCSGWLRKSPPEKKLKRYAWKRRWFVLRSGRLTGDPDVLEYYKNDHAKKPIRIIDLNLCQQVDAGLTFNKKEFENSYIFDINTIDRIFYLVADSEEDMNKWVRCICDICGFNPTEEDPVKPLTGSSQAPVDSPFAISTAPASSQMEASSVALPPPYQVISLPPHPDTLGLQDDPQDYLLLINCQSKKPEPNRTLFDSAKPTFSETDCNDNVPSHQTPASSQSKHGMNGFFQQQMMYDCPPSRLTSVSGESSLYNLPRSYSHDVLPKESPSSTEADGELYTFNTPSGTAGVETQMRHVSISYDIPPTPGNTYQIPRTFPESTLGQSSKLDTIPDIPPPRPPKPHPTHDRSPVETCGVPRTASDTDSSYCIPPPAGMTPSRSNTISTVDLNKLRKDASSQDCYDIPRTFPSDRSSSLEGFHSQYKIKSVLTAGGVSGEELDENYVPMNPNSPPRQHSGSFTEPIQEPNYVPMTPGTFDFSSFGMQVPPPAHMGFRSSPKTPPRRPVPVADCEPPPVDRNLKPDRKVKPAPLDIKPLSEWEELQAPVRSPITRSFARDSSRFPMSPRPDSVHSTTSSSDSHDSEENYVPMNPNLSGEDPNLFASNSLDGGSSPMNKPKGDKQVEYLDLDLDSGKSTPPRKQKSSGSGSSMADERVDYVVVDQQKTLALKSTREAWTDGRQSTESETPTKNVK

biological target: Phosphatidylinositol 3-kinase (PI3K) regulatory subunit alpha (mouse (endogenous in Ht22)) (UniProt P26450); assay: affinity purification with mass spectrometry; endogenous PI3K p85 immunoprecipitated with Ab2 (CST 4257S) and Protein A Sepharose from lysates of Ht22 cells treated 1 h with ACM or CFM and fixed with 0.5% formalin; 0.2% NP-40, 150 mM Tris, 150 mM NaCl; wash with 500 mM NaCl; negative control with blocking peptide; iTRAQ 8plex, MS/MS

binding, binds:
14-3-3 protein epsilon (from UniProt P62259 1-255), 14-3-3 protein zeta/delta (from UniProt P63101 1-245), 78-kDa glucose-regulated protein (from UniProt P20029 20-655), Isoform 1 of SH3 domain–containing kinase-binding protein 1 (from UniProt Q8R550 1-709), Isoform 1 of alpha-type platelet-derived growth factor receptor (from UniProt P26618 25-1089), Phosphatidylinositol 3-kinase regulatory subunit beta (from UniProt O08908 1-722), B1, B2, B3, B4
